Test [1] deals with myc-tagged VIPAR C-terminal construct C- (human). Put plainly: co-IP; HEK293 cells transfected 48 h; NP-40 lysis buffer (0.3% NP-40, 10 mM HEPES pH 8.5, 10 mM KCl, 5 mM MgCl2, 5 mM DTT); anti-myc or anti-HA antibody on Dynabeads Protein G, overnight at 4 °C; western blot. A general note: Immunoblotting shows a protein as a band on a membrane.
Test [2] concerns the target myc-tagged VIPAR C-terminal construct C+ (human). Described as above.

No constants are given. Whether binding was seen depends on the method and setting. Binding seen in cells or lysates may run through a third protein. A result given as binding can be weak or reduced; the word gives no strength. Tags and fused reporters may be left off the sequences shown.

B1: HA-tagged VPS33B (protein, UniProt Q9H267 1-617)
chain: MAFPHRPDAPELPDFSMLKRLARDQLIYLLEQLPGKKDLFIEADLMSPLDRIANVSILKQHEVDKLYKVENKPALSSNEQLCFLVRPRIKNMRYIASLVNADKLAGRTRKYKVIFSPQKFYACEMVLEEEGIYGDVSCDEWAFSLLPLDVDLLSMELPEFFRDYFLEGDQRWINTVAQALHLLSTLYGPFPNCYGIGRCAKMAYELWRNLEEEEDGETKGRRPEIGHIFLLDRDVDFVTALCSQVVYEGLVDDTFRIKCGSVDFGPEVTSSDKSLKVLLNAEDKVFNEIRNEHFSNVFGFLSQKARNLQAQYDRRRGMDIKQMKNFVSQELKGLKQEHRLLSLHIGACESIMKKKTKQDFQELIKTEHALLEGFNIRESTSYIEEHIDRQVSPIESLRLMCLLSITENGLIPKDYRSLKTQYLQSYGPEHLLTFSNLRRAGLLTEQAPGDTLTAVESKVSKLVTDKAAGKITDAFSSLAKRSNFRAISKKLNLIPRVDGEYDLKVPRDMAYVFGGAYVPLSCRIIEQVLERRSWQGLDEVVRLLNCSDFAFTDMTKEDKASSESLRLILVVFLGGCTFSEISALRFLGREKGYRFIFLTTAVTNSARLMEAMSEVKA
Take B1: the binding result in test [1] and in test [2] was “binds” each time.

The record behind these values is publication PMC4961739, “Regulation of post-Golgi LH3 trafficking is essential for collagen homeostasis” (Nature Communications, 2016).
